# Source: PubChem BioAssay AID686938 (Drosophila RNAi Screening Center, 2013)
# Screen: 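Knock-downs reducing store-operated calcium influx in Drosophila cells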 (primary screen)
# Cells: Drosophila S2R+ cells
# Reagent: long dsRNA against Drosophila genes, about 0.25 µg dsRNA per well, roughly 10,000 cells
# Timing: 5 days of knock-down before the calcium assay
# Treatment: thapsigargin (SERCA pump blocker) to empty calcium stores; entry signal taken 4 min after adding it
# Read-out: 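Per-well fluo-4 fluorescence in two replicates, unnormalised, measured in resting cells and 4 min after store depletion by the SERCA blocker thapsigargin; ratio of the two present in few wells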
# Scale: calcium entry signal: higher = stronger calcium signal after store depletion; resting calcium signal: higher = higher resting calcium signal
# Hit rule: 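Called when the plate z-score of the entry-to-rest ratio, mean of duplicates, falls below −3; wells with low overall dye signal (Fmax z below −2) or more than five off-targets excluded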
# Calls: active = strongly reduced calcium entry; inactive = no strong reduction
# In all, the deposit lists about 23,000 reagents; this is a random part of those that have a named target and a result. In the full data, 75 (0.33%) were called active. 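Raw plate signals without normalisation; calls rest on plate z-scores that were not deposited; ratio present for only 364 wells.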 Entries without a mark were called inactive. Reagents against one gene are numbered here. The record does not give: the dose of the treatment.
gene knocked down,dsRNA no.,"calcium entry signal, replicate 1 (fluorescence units)","calcium entry signal, replicate 2 (fluorescence units)","resting calcium signal, replicate 1 (fluorescence units)","resting calcium signal, replicate 2 (fluorescence units)"
mbm,1,3.77e7,,2.02e7,
CG43092,1,5.33e7,3.49e7,2.46e7,1.74e7
Dap160,1,1.65e7,3.41e7,7.80e6,3.01e7
Dap160,2,3.48e7,,1.81e7,
CG31220,1,2.08e7,4.88e7,1.07e7,2.13e7
CG13540,1,2.68e7,2.67e7,1.45e7,1.23e7
RpL37-1,1,3.91e7,4.33e7,2.04e7,1.94e7
RpL37-1,2,1.31e7,1.80e7,8.66e6,1.06e7
CG16700,1,3.77e7,3.79e7,1.99e7,1.66e7
Dic4,1,3.85e7,4.72e7,1.85e7,2.06e7
CG13073,1,3.34e7,4.25e7,1.71e7,1.59e7
Start1,1,4.58e7,,2.24e7,
CG12702,1,5.63e7,3.35e7,2.38e7,1.42e7
CG12426,1,2.76e7,5.14e7,1.48e7,2.33e7
Usp16-45,1,2.46e7,2.42e7,1.11e7,1.22e7
CAH5,1,2.86e7,5.76e7,1.53e7,2.26e7
CG43894,1,3.95e7,2.45e7,1.90e7,1.10e7
CG43894,2,2.53e7,3.31e7,1.46e7,1.66e7
Ufc1,1,3.38e7,2.38e7,1.59e7,1.25e7
sip3,1,4.67e7,4.61e7,1.85e7,1.96e7
Chchd3,1,2.36e7,4.26e7,1.32e7,2.15e7
wun,1,3.25e7,2.64e7,1.52e7,1.28e7
CG2246,1,5.35e7,6.96e7,2.51e7,3.04e7
Rab10,1,5.07e7,4.18e7,2.54e7,2.41e7
RfC4,1,4.52e7,3.96e7,3.26e7,1.83e7
Gar1,1,2.13e7,2.77e7,1.29e7,1.46e7
CG16815,1,5.86e7,3.30e7,2.41e7,1.52e7
CG13605,1,3.26e7,3.21e7,1.70e7,1.52e7
Cyp311a1,1,4.07e7,6.79e7,1.93e7,2.84e7
phtm,1,3.66e7,3.12e7,1.78e7,1.36e7
CG32440,1,3.92e7,3.49e7,1.97e7,1.55e7
CG8032,1,4.16e7,2.71e7,2.17e7,1.44e7
Cox17,1,5.61e7,3.25e7,2.71e7,1.54e7
CG42237,1,3.44e7,4.08e7,1.71e7,1.79e7
CG15253,1,5.22e7,3.59e7,2.09e7,1.55e7
Tbca,1,2.83e7,3.55e7,1.34e7,1.69e7
CG34426,1,3.55e7,5.59e7,1.64e7,2.37e7
RpL23A,1,1.52e7,2.10e7,9.93e6,1.35e7
RpL23A,2,3.20e7,4.94e7,1.59e7,2.68e7
CG30195,1,3.16e7,4.12e7,1.70e7,1.91e7
Nup214,1,3.76e7,,1.98e7,
Ir31a,1,3.62e7,5.45e7,1.75e7,2.89e7
CG13066,1,3.73e7,6.33e7,1.95e7,2.58e7
CG4815,1,2.84e7,4.92e7,1.56e7,2.31e7
CG2993,1,4.50e7,2.84e7,2.15e7,1.38e7
CG2993,2,2.63e7,2.65e7,1.06e7,1.30e7
CG17806,1,4.13e7,3.64e7,2.00e7,1.66e7
CG4313,1,3.12e7,3.74e7,1.43e7,1.67e7
CG8026,1,2.95e7,3.33e7,1.13e7,1.56e7
CG8026,2,4.07e7,4.10e7,1.93e7,1.63e7
Alp1,1,3.10e7,3.48e7,1.48e7,2.40e7
CG8888,1,3.55e7,2.98e7,1.48e7,1.46e7
CG8888,2,1.88e7,3.66e7,1.03e7,1.43e7
Vha14-2,1,5.55e7,3.81e7,2.48e7,1.77e7
CG14756,1,3.20e7,4.44e7,1.56e7,1.93e7
CG14015,1,2.07e7,1.80e7,1.12e7,8.68e6
Gmppb,1,2.67e7,3.11e7,1.14e7,1.44e7
VhaM9.7-c,1,4.46e7,4.17e7,3.06e7,1.77e7

9 of these entries in another layout.
CG16815: calcium entry signal, replicate 1 (fluorescence units) = 5.86e7; calcium entry signal, replicate 2 (fluorescence units) = 3.30e7; resting calcium signal, replicate 1 (fluorescence units) = 2.41e7; resting calcium signal, replicate 2 (fluorescence units) = 1.52e7
CG13605: calcium entry signal, replicate 1 (fluorescence units) = 3.26e7; calcium entry signal, replicate 2 (fluorescence units) = 3.21e7; resting calcium signal, replicate 1 (fluorescence units) = 1.70e7; resting calcium signal, replicate 2 (fluorescence units) = 1.52e7
Cyp311a1: calcium entry signal, replicate 1 (fluorescence units) = 4.07e7; calcium entry signal, replicate 2 (fluorescence units) = 6.79e7; resting calcium signal, replicate 1 (fluorescence units) = 1.93e7; resting calcium signal, replicate 2 (fluorescence units) = 2.84e7
phtm: calcium entry signal, replicate 1 (fluorescence units) = 3.66e7; calcium entry signal, replicate 2 (fluorescence units) = 3.12e7; resting calcium signal, replicate 1 (fluorescence units) = 1.78e7; resting calcium signal, replicate 2 (fluorescence units) = 1.36e7
CG32440: calcium entry signal, replicate 1 (fluorescence units) = 3.92e7; calcium entry signal, replicate 2 (fluorescence units) = 3.49e7; resting calcium signal, replicate 1 (fluorescence units) = 1.97e7; resting calcium signal, replicate 2 (fluorescence units) = 1.55e7
CG8032: calcium entry signal, replicate 1 (fluorescence units) = 4.16e7; calcium entry signal, replicate 2 (fluorescence units) = 2.71e7; resting calcium signal, replicate 1 (fluorescence units) = 2.17e7; resting calcium signal, replicate 2 (fluorescence units) = 1.44e7
Cox17: calcium entry signal, replicate 1 (fluorescence units) = 5.61e7; calcium entry signal, replicate 2 (fluorescence units) = 3.25e7; resting calcium signal, replicate 1 (fluorescence units) = 2.71e7; resting calcium signal, replicate 2 (fluorescence units) = 1.54e7
CG42237: calcium entry signal, replicate 1 (fluorescence units) = 3.44e7; calcium entry signal, replicate 2 (fluorescence units) = 4.08e7; resting calcium signal, replicate 1 (fluorescence units) = 1.71e7; resting calcium signal, replicate 2 (fluorescence units) = 1.79e7
CG15253: calcium entry signal, replicate 1 (fluorescence units) = 5.22e7; calcium entry signal, replicate 2 (fluorescence units) = 3.59e7; resting calcium signal, replicate 1 (fluorescence units) = 2.09e7; resting calcium signal, replicate 2 (fluorescence units) = 1.55e7
